{"source": "PubChem BioAssay AID246", "about": "(DTP/NCI, 2004)", "tested_on": "BDF1 mice, P1081 chloroleukemia ip, survival T/C", "test": "NCI In Vivo Anticancer Drug Screen. Data for tumor model P1081 Chloroleukemia (intraperitoneal) in B6D2F1 (BDF1) mice", "settings": "T/C endpoint: mean survival time, higher T/C = longer survival", "method": "The antitumor activity of compounds was measured in mice bearing transplantable tumors. Survival or tumor size were measured and the results are expressed as the measurement made in the treated group (T) divided by the measurement made in the vehicle treated control group (C). The tumor model used in this assay is P1081 Chloroleukemia (intraperitoneal) in B6D2F1 (BDF1) mice", "key": {"[1]": {"settings": "dose: 0.5 mg/kg/injection, schedule: Q01DX010 (ip), vehicle: saline"}, "[2]": {"settings": "dose: 1.0 mg/kg/injection, schedule: Q01DX010 (ip), vehicle: saline"}, "[3]": {"settings": "dose: 2.0 mg/kg/injection, schedule: Q01DX010 (ip), vehicle: saline"}, "[4]": {"settings": "dose: 1.25 mg/kg/injection, schedule: Q01DX010 (ip), vehicle: saline"}, "[5]": {"settings": "dose: 2.5 mg/kg/injection, schedule: Q01DX010 (ip), vehicle: saline"}, "[6]": {"settings": "dose: 5.0 mg/kg/injection, schedule: Q01DX010 (ip), vehicle: saline"}, "[7]": {"settings": "dose: 5.0 mg/kg/injection, schedule: Q01DX Z (ip), vehicle: carboxymethylcellulose (CMC)"}, "[8]": {"settings": "dose: 10.0 mg/kg/injection, schedule: Q01DX Z (ip), vehicle: carboxymethylcellulose (CMC)"}, "[9]": {"settings": "dose: 0.63 mg/kg/injection, schedule: Q01DX010 (ip), vehicle: saline"}}, "note": "The list shows only some results of the screen, not a fair sample: its compounds were picked by chemical class. Not every dose and run of a compound is shown. T/C gives the treated animals as a percentage of the vehicle group. Where survival is the endpoint, this PubChem deposit counts one and a half times the control or more as active, and values a quarter to a half above the control carry no call in these data; other NCI protocols may use other cut-offs. Some T/C values are marked as having no survivor count here; that says nothing about deaths at the dose. Schedule codes are those of the source, taken here to give the interval after Q, in days (D) or hours (H), and the number of doses after X. Some entries were tested several times; their values stand side by side, smallest first. Some schedules carry Z or #; the key to these is not given."}
{"smiles": "CC(C(=O)O)N(CCCl)CCCl", "note": "(centres undefined)", "values": [{"measurement": "T/C", "setting": "[1]", "value": "110 % of control [survivor count not shown]"}, {"measurement": "T/C", "setting": "[2]", "value": "109 [survivor count not shown] and 175 % of control [survivor count not shown]"}, {"measurement": "T/C", "setting": "[3]", "value": "127 [survivor count not shown] and 210 % of control [survivor count not shown]"}, {"measurement": "T/C", "setting": "dose: 4.0 mg/kg/injection, schedule: Q01DX010 (ip), vehicle: saline", "value": "210 [survivor count not shown] and 300 % of control [survivor count not shown]"}]}
{"smiles": "ClCCN(CCCl)Cc1nc2ccccc2[nH]1", "values": [{"measurement": "T/C", "setting": "[4]", "value": "110 [survivor count not shown] and 115 % of control [survivor count not shown]"}, {"measurement": "T/C", "setting": "[5]", "value": "125 [survivor count not shown] and 155 % of control [survivor count not shown]"}, {"measurement": "T/C", "setting": "[6]", "value": "140 [survivor count not shown] and 160 % of control [survivor count not shown]"}, {"measurement": "T/C", "setting": "[7]", "value": "112 % of control [survivor count not shown]"}, {"measurement": "T/C", "setting": "dose: 10.0 mg/kg/injection, schedule: Q01DX010 (ip), vehicle: saline", "value": "90 [survivor count not shown] and 130 % of control [survivor count not shown]"}, {"measurement": "T/C", "setting": "[8]", "value": "160 % of control [survivor count not shown]"}, {"measurement": "T/C", "setting": "dose: 20.0 mg/kg/injection, schedule: Q01DX Z (ip), vehicle: carboxymethylcellulose (CMC)", "value": "177 % of control [survivor count not shown]"}]}
{"smiles": "NC(Cc1ccccc1N(CCCl)CCCl)C(=O)O", "note": "(centres undefined)", "values": [{"measurement": "T/C", "setting": "dose: 0.25 mg/kg/injection, schedule: Q01DX010 (ip), vehicle: saline", "value": "260 % of control [survivor count not shown]"}, {"measurement": "T/C", "setting": "dose: 0.25 mg/kg/injection, schedule: Q01DX Z (ip), vehicle: carboxymethylcellulose (CMC)", "value": "93 % of control [survivor count not shown]"}, {"measurement": "T/C", "setting": "[1]", "value": "300 % of control [survivor count not shown]"}, {"measurement": "T/C", "setting": "dose: 0.5 mg/kg/injection, schedule: Q01DX Z (ip), vehicle: carboxymethylcellulose (CMC)", "value": "106 % of control [survivor count not shown]"}, {"measurement": "T/C", "setting": "[2]", "value": "300 % of control [survivor count not shown]"}, {"measurement": "T/C", "setting": "[3]", "value": "135 % of control [survivor count not shown]"}, {"measurement": "T/C", "setting": "dose: 2.0 mg/kg/injection, schedule: Q01DX Z (ip), vehicle: carboxymethylcellulose (CMC)", "value": "91 % of control [survivor count not shown]"}]}
{"smiles": "NC(Cc1cccc(N(CCCl)CCCl)c1)C(=O)O", "note": "(centres undefined)", "values": [{"measurement": "T/C", "setting": "dose: 0.02 mg/kg/injection, schedule: Q01DX Z (ip), vehicle: carboxymethylcellulose (CMC)", "value": "104 % of control [survivor count not shown]"}, {"measurement": "T/C", "setting": "dose: 0.04 mg/kg/injection, schedule: Q01DX Z (ip), vehicle: carboxymethylcellulose (CMC)", "value": "106 % of control [survivor count not shown]"}, {"measurement": "T/C", "setting": "dose: 0.08 mg/kg/injection, schedule: Q01DX Z (ip), vehicle: carboxymethylcellulose (CMC)", "value": "103 [survivor count not shown] and 145 % of control [survivor count not shown]"}, {"measurement": "T/C", "setting": "dose: 0.16 mg/kg/injection, schedule: Q01DX Z (ip), vehicle: carboxymethylcellulose (CMC)", "value": "111 [survivor count not shown] and 159 % of control [survivor count not shown]"}, {"measurement": "T/C", "setting": "dose: 0.31 mg/kg/injection, schedule: Q01DX010 (ip), vehicle: saline", "value": "118 % of control [survivor count not shown]"}, {"measurement": "T/C", "setting": "dose: 0.32 mg/kg/injection, schedule: Q01DX Z (ip), vehicle: carboxymethylcellulose (CMC)", "value": "178 % of control [survivor count not shown]"}, {"measurement": "T/C", "setting": "[9]", "value": "120 [survivor count not shown] and 231 % of control [survivor count not shown]"}, {"measurement": "T/C", "setting": "dose: 0.63 mg/kg/injection, schedule: Q01DX Z (ip), vehicle: carboxymethylcellulose (CMC)", "value": "149 % of control [survivor count not shown]"}, {"measurement": "T/C", "setting": "[4]", "value": "105 [survivor count not shown] and 145 % of control [survivor count not shown]"}, {"measurement": "T/C", "setting": "dose: 1.25 mg/kg/injection, schedule: Q01DX Z (ip), vehicle: carboxymethylcellulose (CMC)", "value": "184 % of control [survivor count not shown]"}, {"measurement": "T/C", "setting": "dose: 2.5 mg/kg/injection, schedule: Q01DX Z (ip), vehicle: carboxymethylcellulose (CMC)", "value": "240 % of control [survivor count not shown]"}, {"measurement": "T/C", "setting": "[7]", "value": "89 % of control [survivor count not shown]"}, {"measurement": "T/C", "setting": "[8]", "value": "124 % of control [survivor count not shown]"}]}
{"smiles": "ClCCNCCCl", "values": [{"measurement": "T/C", "setting": "dose: 9.4 mg/kg/injection, schedule: Q01DX010 (ip), vehicle: saline", "value": "100 % of control [survivor count not shown]"}, {"measurement": "T/C", "setting": "dose: 12.5 mg/kg/injection, schedule: Q01DX Z (ip), vehicle: carboxymethylcellulose (CMC)", "value": "86 % of control [survivor count not shown]"}, {"measurement": "T/C", "setting": "dose: 18.8 mg/kg/injection, schedule: Q01DX010 (ip), vehicle: saline", "value": "120 [survivor count not shown] and 131 % of control [survivor count not shown]"}, {"measurement": "T/C", "setting": "dose: 25.0 mg/kg/injection, schedule: Q01DX Z (ip), vehicle: carboxymethylcellulose (CMC)", "value": "93 [survivor count not shown] and 98 % of control [survivor count not shown]"}, {"measurement": "T/C", "setting": "dose: 37.5 mg/kg/injection, schedule: Q01DX010 (ip), vehicle: saline", "value": "118 [survivor count not shown] and 160 % of control [survivor count not shown]"}, {"measurement": "T/C", "setting": "dose: 50.0 mg/kg/injection, schedule: Q01DX Z (ip), vehicle: carboxymethylcellulose (CMC)", "value": "86 % of control [survivor count not shown]"}]}
{"smiles": "O=C(O)CN(CCCl)CCCl", "values": [{"measurement": "T/C", "setting": "dose: 0.25 mg/kg/injection, schedule: Q01DX Z (ip), vehicle: saline", "value": "114 % of control [survivor count not shown]"}, {"measurement": "T/C", "setting": "dose: 0.5 mg/kg/injection, schedule: Q01DX Z (ip), vehicle: saline", "value": "104 [survivor count not shown] and 141 % of control [survivor count not shown]"}, {"measurement": "T/C", "setting": "[9]", "value": "95 [survivor count not shown] and 120 % of control [survivor count not shown]"}, {"measurement": "T/C", "setting": "dose: 1.0 mg/kg/injection, schedule: Q01DX Z (ip), vehicle: saline", "value": "131 [survivor count not shown] and 148 % of control [survivor count not shown]"}, {"measurement": "T/C", "setting": "[4]", "value": "118 [survivor count not shown] and 145 % of control [survivor count not shown]"}, {"measurement": "T/C", "setting": "dose: 2.0 mg/kg/injection, schedule: Q01DX Z (ip), vehicle: saline", "value": "155 % of control [survivor count not shown]"}, {"measurement": "T/C", "setting": "[5]", "value": "209 [survivor count not shown] and 300 % of control [survivor count not shown]"}, {"measurement": "T/C", "setting": "dose: 4.0 mg/kg/injection, schedule: Q01DX Z (ip), vehicle: saline", "value": "131 % of control [survivor count not shown]"}, {"measurement": "T/C", "setting": "[6]", "value": "118 % of control [survivor count not shown]"}]}
{"smiles": "NC1CCCCC1.NP(=O)(O)N(CCCl)CCCl", "values": [{"measurement": "T/C", "setting": "dose: 15.6 mg/kg/injection, schedule: Q01DX010 (ip), vehicle: saline", "value": "300 % of control [survivor count not shown]"}, {"measurement": "T/C", "setting": "dose: 31.3 mg/kg/injection, schedule: Q01DX010 (ip), vehicle: saline", "value": "195 % of control [survivor count not shown]"}, {"measurement": "T/C", "setting": "dose: 62.5 mg/kg/injection, schedule: Q01DX010 (ip), vehicle: saline", "value": "115 % of control [survivor count not shown]"}]}
